pIC50: −log10 of the molar value. Structures were worked out from names or drawings and are uncertain.
Biological target: human D3 receptors (Homo sapiens, UniProt P35462)
Assay: β-arrestin recruitment assay (antagonist mode, competition with dopamine)
Conditions: potency for D3 receptors, CHO-K1 cells, vs 30 nM (EC80) dopamine; mean ± SD, three experiments

Amino acid sequences for entries named in this document (tags omitted).
UniProt P35462, whole entry: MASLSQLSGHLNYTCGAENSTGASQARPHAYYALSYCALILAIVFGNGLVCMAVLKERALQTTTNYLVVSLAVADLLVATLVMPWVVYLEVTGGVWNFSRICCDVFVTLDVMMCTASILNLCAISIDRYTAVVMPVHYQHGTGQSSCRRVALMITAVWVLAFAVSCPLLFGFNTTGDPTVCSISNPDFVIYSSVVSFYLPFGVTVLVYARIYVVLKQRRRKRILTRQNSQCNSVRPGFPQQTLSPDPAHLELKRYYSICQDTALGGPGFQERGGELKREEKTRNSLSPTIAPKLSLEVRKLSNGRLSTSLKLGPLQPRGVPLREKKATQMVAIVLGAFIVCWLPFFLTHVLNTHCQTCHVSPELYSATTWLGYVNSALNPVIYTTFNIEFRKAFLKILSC

pIC50: 8.34
Structure (SMILES): CCN(C)CCNC(=O)c1cc(Br)cc(OC)c1OC [compound 12, 5-Bromo-N-(2-(ethyl(methyl)amino)ethyl)-2,3-dimethoxybenzamide]

Source: publication PMC9820167, “Design and Synthesis of Conformationally Flexible Scaffold as Bitopic Ligands for Potent D3-Selective Antagonists” (International Journal of Molecular Sciences, 2022)
